For one substance, binding results are on record in PMC6981127.

Protein sequences, listed by entry. Tags and fused reporters are not part of them.
UniProt P51943: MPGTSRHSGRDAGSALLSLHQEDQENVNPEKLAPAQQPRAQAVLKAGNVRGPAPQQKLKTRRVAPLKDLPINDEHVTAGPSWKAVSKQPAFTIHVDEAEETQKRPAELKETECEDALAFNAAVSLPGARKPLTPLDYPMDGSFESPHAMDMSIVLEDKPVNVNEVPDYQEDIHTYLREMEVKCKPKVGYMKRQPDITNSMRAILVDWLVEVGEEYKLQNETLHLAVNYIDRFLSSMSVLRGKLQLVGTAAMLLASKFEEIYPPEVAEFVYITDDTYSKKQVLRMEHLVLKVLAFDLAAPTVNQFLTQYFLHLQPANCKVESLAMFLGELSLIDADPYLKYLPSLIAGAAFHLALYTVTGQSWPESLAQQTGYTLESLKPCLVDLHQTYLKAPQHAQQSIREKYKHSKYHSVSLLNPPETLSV

No constants are given. Whether binding was seen depends on the method and setting. Binding seen in cells or lysates may run through a third protein.

For the experiment, the target named is T1, PDZ domain-containing RING-finger protein 3 (UniProt Q69ZS0).
T1 sequence: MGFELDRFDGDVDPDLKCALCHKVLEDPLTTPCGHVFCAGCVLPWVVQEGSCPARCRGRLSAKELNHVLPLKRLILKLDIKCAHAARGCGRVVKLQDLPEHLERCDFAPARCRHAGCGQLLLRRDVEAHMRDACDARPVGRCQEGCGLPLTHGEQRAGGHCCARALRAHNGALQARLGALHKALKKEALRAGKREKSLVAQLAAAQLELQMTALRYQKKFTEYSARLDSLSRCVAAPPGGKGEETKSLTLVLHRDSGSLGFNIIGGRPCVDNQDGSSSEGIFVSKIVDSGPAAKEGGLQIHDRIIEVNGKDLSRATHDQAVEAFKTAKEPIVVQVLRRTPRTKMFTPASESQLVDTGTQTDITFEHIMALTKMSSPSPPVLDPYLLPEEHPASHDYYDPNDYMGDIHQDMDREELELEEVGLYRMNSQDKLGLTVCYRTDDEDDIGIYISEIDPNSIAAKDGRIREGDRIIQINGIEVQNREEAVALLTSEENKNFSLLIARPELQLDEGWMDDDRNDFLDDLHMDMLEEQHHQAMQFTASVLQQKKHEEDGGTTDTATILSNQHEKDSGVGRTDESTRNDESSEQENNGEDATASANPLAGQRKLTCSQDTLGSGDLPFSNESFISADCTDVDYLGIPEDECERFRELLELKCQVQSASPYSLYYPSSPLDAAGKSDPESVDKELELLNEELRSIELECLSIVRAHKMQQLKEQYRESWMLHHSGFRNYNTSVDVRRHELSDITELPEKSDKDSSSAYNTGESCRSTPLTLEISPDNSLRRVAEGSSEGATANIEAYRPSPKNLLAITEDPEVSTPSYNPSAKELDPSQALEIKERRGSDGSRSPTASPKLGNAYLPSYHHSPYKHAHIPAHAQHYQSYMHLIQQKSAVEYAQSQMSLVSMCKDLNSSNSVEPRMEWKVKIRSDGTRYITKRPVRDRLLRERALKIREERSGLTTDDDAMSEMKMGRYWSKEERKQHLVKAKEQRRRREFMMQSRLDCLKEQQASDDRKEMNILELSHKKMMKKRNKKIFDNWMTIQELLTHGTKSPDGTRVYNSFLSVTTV
The experiment is described as follows: co-IP; immunoprecipitation; cells, antibodies and conditions not told in the main text (Supplementary Fig. S2).

Consider cyclin A2 (from UniProt P51943 1-422), for which the binding entry is given as “no binding”.
